Data as given in PubChem BioAssay AID652243 (Drosophila RNAi Screening Center, 2013).
Test: 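Knock-downs that decrease or increase androgen receptor reporter signal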 (primary screen). Cells: Drosophila S2R+ cells. Knock-down reagent: long dsRNA against Drosophila genes. Time to read-out: 72 h (48 h, then 24 h hormone). Treatment: synthetic androgen R1881 at 10 nM for 24 h. Measured: 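Firefly light from an androgen-responsive reporter and Renilla control light per well, raw and unnormalised, for each of two replicates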. Direction: firefly reporter light: higher = more light from androgen-responsive reporter; Renilla control light: higher = more constitutive control signal (cell number, transfection). Hit rule: 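Across duplicate plates, a knock-down whose log firefly/Renilla ratio shifted a set fold down or up from the GFP/LacZ control mean was a hit; the downward cut appears as both 1.5 and 3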. Meaning of the calls: active = hit: reporter lowered or raised; inactive = no hit.
The screen tested about 24,000 reagents; shown is an unselected part of those that have a named target and a result. Over the whole deposit, 246 (1%) were called active. 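Plates not normalised; calls are printed but the firefly/Renilla ratio behind them is not deposited; fold cut for lowering reported inconsistently.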 Raw values vary from plate to plate and are shown uncorrected. Reagents against one gene are numbered here. Not given: the amount of reagent.

| Target gene | dsRNA no. | firefly reporter light, replicate 1 | firefly reporter light, replicate 2 | Renilla control light, replicate 1 | Renilla control light, replicate 2 | Outcome |
| --- | --- | --- | --- | --- | --- | --- |
| CG14683 | 1 | 1.06e5 | 1.18e5 | 1.05e6 | 1.04e6 | inactive |
| lz (lozenge) | 1 | 2.81e5 | 3.09e5 | 3.45e6 | 2.91e6 | inactive |
| lz (lozenge) | 2 | 4.92e5 | 5.61e5 | 1.94e6 | 2.06e6 | inactive |
| lz (lozenge) | 3 | 4.14e5 | 4.28e5 | 4.41e5 | 5.55e5 | inactive |
| Gr77a (Gustatory receptor 77a) | 1 | 1.47e5 | 1.09e5 | 3.81e5 | 3.68e5 | inactive |
| Gr77a (Gustatory receptor 77a) | 2 | 2.17e5 | 2.22e5 | 4.03e5 | 4.28e5 | inactive |
| CG3552 | 1 | 1.44e5 | 1.48e5 | 2.07e6 | 1.87e6 | inactive |
| alphaTry (alphaTrypsin) | 1 | 4.69e5 | 2.53e5 | 2.81e6 | 2.09e6 | inactive |
| CG30376 | 1 | 1.23e5 | 2.73e5 | 4.68e5 | 6.73e5 | inactive |
| Clp (Clipper) | 1 | 1.23e5 | 88918 | 7.86e5 | 7.61e5 | inactive |
| CG33172 | 1 | 5.13e5 | 5.49e5 | 2.00e6 | 2.42e6 | inactive |
| Slu7 | 1 | 1.89e5 | 1.95e5 | 2.94e6 | 3.54e6 | inactive |
| Slu7 | 2 | 8.51e5 | 9.14e5 | 9.59e5 | 9.16e5 | inactive |
| scaf6 (SR-related CTD associated factor 6) | 1 | 94367 | 1.43e5 | 7.34e5 | 7.06e5 | inactive |
| scaf6 (SR-related CTD associated factor 6) | 2 | 4.02e5 | 3.04e5 | 2.52e6 | 2.18e6 | inactive |
| CG12290 | 1 | 64173 | 84607 | 6.12e5 | 6.84e5 | inactive |
| CG12290 | 2 | 4.89e5 | 7.72e5 | 9.08e5 | 1.43e6 | inactive |
| mth (methuselah) | 1 | 1.53e6 | 1.14e6 | 2.89e6 | 2.50e6 | inactive |
| mth (methuselah) | 2 | 9.07e5 | 9.41e5 | 2.22e6 | 1.63e6 | inactive |
| dcma (decima) | 1 | 6.02e5 | 5.96e5 | 6.62e5 | 5.48e5 | inactive |
| dcma (decima) | 2 | 1.34e5 | 1.04e5 | 1.16e6 | 9.29e5 | inactive |
| Mlp60A (Muscle LIM protein at 60A) | 1 | 2.18e5 | 2.94e5 | 1.25e6 | 1.64e6 | inactive |
| Mlp60A (Muscle LIM protein at 60A) | 2 | 6.97e5 | 6.53e5 | 1.71e6 | 1.33e6 | inactive |
| Mlp60A (Muscle LIM protein at 60A) | 3 | 6.39e5 | 9.38e5 | 2.22e5 | 2.47e5 | inactive |

2 entries from above, showing only “firefly reporter light, replicate 2”:
dcma (decima) #2: 1.04e5
Mlp60A (Muscle LIM protein at 60A) #1: 2.94e5
